# At least one structure is not confirmed: it was looked up by name or label, or the drawing left a doubt.
# What was measured:
# [1] = test system: U-87 MG; test: Resistance to temozolomide of cells cultured in chitosan-alginate scaffolds; format: cell-based, Human; settings: Table 1 property
# [2] = test system: SF767; test: as above; format: cell-based, Human; settings: SF767, Table 1 property
structure (smiles),measurement,setting,value
Cn1nnc2c(C(N)=O)ncn2c1=O [temozolomide],resistance to temozolomide of cells cultured in chitosan-alginate scaffolds,[1],increased resistance to
same,resistance to temozolomide of cells cultured in chitosan-alginate scaffolds,[2],Increased resistance to

# Reference: patent publication US9157908B2, “Chitosan-alginate scaffold cell culture system and related methods” (University of Washington through its Center for …, priority 2011, dated 2015)
